Binding data for 3 molecules are collected here from publication doi:10.1101/2025.04.25.650548.

Chains of the proteins cited; added tags and fusions are not shown. Lines headed by an entry give the natural chain unless they say otherwise; changes in a name come on top.
UniProt Q9UKA4: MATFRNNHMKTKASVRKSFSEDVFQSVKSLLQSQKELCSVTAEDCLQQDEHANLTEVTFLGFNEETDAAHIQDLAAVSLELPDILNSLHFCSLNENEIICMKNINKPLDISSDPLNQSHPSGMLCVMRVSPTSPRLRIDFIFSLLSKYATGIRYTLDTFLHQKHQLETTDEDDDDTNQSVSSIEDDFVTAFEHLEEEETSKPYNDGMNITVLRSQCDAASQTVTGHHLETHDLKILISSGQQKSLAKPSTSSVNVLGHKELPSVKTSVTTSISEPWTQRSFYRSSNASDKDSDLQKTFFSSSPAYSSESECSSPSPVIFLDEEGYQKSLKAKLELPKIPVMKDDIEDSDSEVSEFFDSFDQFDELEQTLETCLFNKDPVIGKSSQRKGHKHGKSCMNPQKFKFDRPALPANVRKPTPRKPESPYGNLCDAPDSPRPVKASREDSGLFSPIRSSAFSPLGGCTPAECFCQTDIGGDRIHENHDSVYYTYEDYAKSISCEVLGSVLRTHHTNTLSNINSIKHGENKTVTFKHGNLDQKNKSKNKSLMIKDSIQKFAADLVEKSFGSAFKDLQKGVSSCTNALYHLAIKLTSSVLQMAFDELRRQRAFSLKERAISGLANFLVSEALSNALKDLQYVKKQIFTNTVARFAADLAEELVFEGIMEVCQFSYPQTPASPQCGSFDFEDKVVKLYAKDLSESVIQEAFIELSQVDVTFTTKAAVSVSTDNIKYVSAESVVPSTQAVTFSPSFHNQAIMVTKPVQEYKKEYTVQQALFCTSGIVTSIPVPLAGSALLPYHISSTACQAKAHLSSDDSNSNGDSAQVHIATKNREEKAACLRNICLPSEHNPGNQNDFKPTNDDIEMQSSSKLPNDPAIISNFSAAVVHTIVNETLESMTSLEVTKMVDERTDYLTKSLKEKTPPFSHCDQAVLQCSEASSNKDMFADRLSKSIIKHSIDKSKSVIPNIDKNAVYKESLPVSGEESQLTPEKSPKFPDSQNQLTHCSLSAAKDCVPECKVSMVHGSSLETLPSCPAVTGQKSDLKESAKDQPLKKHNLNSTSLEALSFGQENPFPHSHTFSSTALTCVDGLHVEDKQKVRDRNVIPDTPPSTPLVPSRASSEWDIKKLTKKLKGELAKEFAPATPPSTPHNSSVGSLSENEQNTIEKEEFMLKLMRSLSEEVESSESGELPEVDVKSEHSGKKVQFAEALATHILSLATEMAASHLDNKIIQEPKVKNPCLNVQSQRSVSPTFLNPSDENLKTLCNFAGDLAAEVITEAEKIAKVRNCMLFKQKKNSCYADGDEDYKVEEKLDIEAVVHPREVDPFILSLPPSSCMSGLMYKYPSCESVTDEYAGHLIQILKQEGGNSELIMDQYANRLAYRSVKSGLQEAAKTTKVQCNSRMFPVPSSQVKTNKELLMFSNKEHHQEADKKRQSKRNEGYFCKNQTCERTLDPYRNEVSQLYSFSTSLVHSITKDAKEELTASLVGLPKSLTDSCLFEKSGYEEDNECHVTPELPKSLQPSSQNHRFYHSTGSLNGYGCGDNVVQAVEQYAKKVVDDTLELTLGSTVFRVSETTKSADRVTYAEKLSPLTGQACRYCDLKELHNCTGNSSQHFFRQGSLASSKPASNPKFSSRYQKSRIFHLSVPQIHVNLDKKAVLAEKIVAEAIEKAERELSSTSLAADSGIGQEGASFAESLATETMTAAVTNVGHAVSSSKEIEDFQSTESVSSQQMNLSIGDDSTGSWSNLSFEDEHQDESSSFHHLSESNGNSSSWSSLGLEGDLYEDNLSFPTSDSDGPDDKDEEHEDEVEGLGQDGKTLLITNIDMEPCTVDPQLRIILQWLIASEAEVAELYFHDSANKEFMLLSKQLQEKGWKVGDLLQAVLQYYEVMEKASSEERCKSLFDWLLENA
UniProt P10644: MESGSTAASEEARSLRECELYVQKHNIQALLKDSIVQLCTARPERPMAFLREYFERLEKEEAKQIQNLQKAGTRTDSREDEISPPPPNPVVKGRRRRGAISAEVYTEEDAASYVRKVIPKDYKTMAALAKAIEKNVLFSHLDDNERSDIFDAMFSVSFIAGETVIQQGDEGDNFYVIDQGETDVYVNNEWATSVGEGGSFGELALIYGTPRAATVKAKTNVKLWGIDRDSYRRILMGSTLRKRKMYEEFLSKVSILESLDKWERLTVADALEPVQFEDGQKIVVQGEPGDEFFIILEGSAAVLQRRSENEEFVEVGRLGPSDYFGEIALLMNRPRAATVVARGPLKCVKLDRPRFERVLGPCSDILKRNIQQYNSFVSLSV
UniProt O95292: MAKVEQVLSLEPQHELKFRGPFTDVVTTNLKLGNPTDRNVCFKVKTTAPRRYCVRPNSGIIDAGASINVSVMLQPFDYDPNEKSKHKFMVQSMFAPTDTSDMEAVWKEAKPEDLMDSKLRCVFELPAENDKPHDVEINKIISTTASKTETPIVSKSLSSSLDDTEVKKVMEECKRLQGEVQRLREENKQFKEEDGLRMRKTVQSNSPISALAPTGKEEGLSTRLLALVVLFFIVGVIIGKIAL

Holding throughout (assay): co-IP
Test [1] addresses human AKAP11-EGFP (human) (UniProt Q9UKA4).
The target of test [2] is EGFP-AKAP11-D357A (human) (UniProt Q9UKA4).
Test [3] concerns the target EGFP-AKAP11-E354A (human) (UniProt Q9UKA4).
In test [4] the target is EGFP-AKAP11-D360A (human) (UniProt Q9UKA4).
Test [5] has as its target EGFP-AKAP11-E354A/D357A/D360A (human) (UniProt Q9UKA4).
For a further test, the target named is EGFP-AKAP11 (human) (UniProt Q9UKA4).

Results are given in words; binding and its absence hold for the method and conditions named. Binding seen in cells or lysates may run through a third protein. Some results given as binding are weak or reduced against the parent protein; the word gives no strength.

“PKA R1-α (PRKAR1A) (from UniProt P10644 1-381)”: in test [1], the binding result is listed as “binds”.

With “vesicle-associated membrane protein-associated protein VAP-B (from UniProt O95292 1-243)”, the binding entry is reported as “binds” in test [2]; “binds” in test [3]; “binds” in test [4]; “binds” in test [1]; “binds weakly” in test [5]; “binds” with EGFP-AKAP11 (human).

B1: ABCD3/PMP70 (protein, UniProt P28288 1-659)
chain: MAAFSKYLTARNSSLAGAAFLLLCLLHKRRRALGLHGKKSGKPPLQNNEKEGKKERAVVDKVFFSRLIQILKIMVPRTFCKETGYLVLIAVMLVSRTYCDVWMIQNGTLIESGIIGRSRKDFKRYLLNFIAAMPLISLVNNFLKYGLNELKLCFRVRLTKYLYEEYLQAFTYYKMGNLDNRIANPDQLLTQDVEKFCNSVVDLYSNLSKPFLDIVLYIFKLTSAIGAQGPASMMAYLVVSGLFLTRLRRPIGKMTITEQKYEGEYRYVNSRLITNSEEIAFYNGNKREKQTVHSVFRKLVEHLHNFILFRFSMGFIDSIIAKYLATVVGYLVVSRPFLDLSHPRHLKSTHSELLEDYYQSGRMLLRMSQALGRIVLAGREMTRLAGFTARITELMQVLKDLNHGKYERTMVSQQEKGIEGVQVIPLIPGAGEIIIADNIIKFDHVPLATPNGDVLIRDLNFEVRSGANVLICGPNGCGKSSLFRVLGELWPLFGGRLTKPERGKLFYVPQRPYMTLGTLRDQVIYPDGREDQKRKGISDLVLKEYLDNVQLGHILEREGGWDSVQDWMDVLSGGEKQRMAMARLFYHKPQFAILDECTSAVSVDVEGYIYSHCRKVGITLFTVSHRKSLWKHHEYYLHMDGRGNYEFKQITEDTVEFGS
On to B1, for which the binding entry (in test [2]; in test [3]; in test [4]; in test [1]; in test [5]; in the test with EGFP-AKAP11 (human)) was “binds” throughout.
